The target in test [1] is T1, MCT1 (monocarboxylate transporter 1), endogenous (human), P53985.
T1 chain: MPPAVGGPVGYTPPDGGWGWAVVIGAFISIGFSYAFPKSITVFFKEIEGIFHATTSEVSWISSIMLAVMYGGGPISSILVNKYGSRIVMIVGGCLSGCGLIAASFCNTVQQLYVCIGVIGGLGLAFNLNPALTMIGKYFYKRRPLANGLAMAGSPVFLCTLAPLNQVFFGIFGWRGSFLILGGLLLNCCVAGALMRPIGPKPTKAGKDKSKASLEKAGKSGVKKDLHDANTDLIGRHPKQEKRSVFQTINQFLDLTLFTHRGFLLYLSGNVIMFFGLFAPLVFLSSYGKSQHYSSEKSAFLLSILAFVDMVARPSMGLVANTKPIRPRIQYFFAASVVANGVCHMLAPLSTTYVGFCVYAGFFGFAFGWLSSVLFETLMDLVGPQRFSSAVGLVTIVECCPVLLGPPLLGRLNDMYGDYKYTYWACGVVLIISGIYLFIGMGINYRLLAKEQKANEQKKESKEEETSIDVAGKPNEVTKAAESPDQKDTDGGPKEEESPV
As to the kind of experiment: tandem affinity purification, mass spectrometry. The conditions noted are these: remark: other sources report otherwise.

The target in test [2] is T1, MCT1 (monocarboxylate transporter 1), …. As to the kind of experiment: tandem affinity purification (Strep, then Flag) from HEK 293T cells, mass spectrometry. The conditions noted are these: remark: other sources report otherwise.

These are yes or no findings as the source states them, for the method shown. In cells and extracts the contact can be indirect. These calls come from enrichment with a bait or labelling near it, and not all partners need be listed. Tags and fused reporters may be left off the sequences shown.

B1: Strep-Flag tagged CRBN (CRBN-SF), Q96SW2 1-442 (protein, human, UniProt Q96SW2 1-442, looked up, not shown: small tags and cut ends)
chain: MAGEGDQQDAAHNMGNHLPLLPAESEEEDEMEVEDQDSKEAKKPNIINFDTSLPTSHTYLGADMEEFHGRTLHDDDSCQVIPVLPQVMMILIPGQTLPLQLFHPQEVSMVRNLIQKDRTFAVLAYSNVQEREAQFGTTAEIYAYREEQDFGIEIVKVKAIGRQRFKVLELRTQSDGIQQAKVQILPECVLPSTMSAVQLESLNKCQIFPSKPVSREDQCSYKWWQKYQKRKFHCANLTSWPRWLYSLYDAETLMDRIKKQLREWDENLKDDSLPSNPIDFSYRVAACLPIDDVLRIQLLKIGSAIQRLRCELDIMNKCTSLCCKQCQETEITTKNEIFSLSLCGPMAAYVNPHGYVHETLTVYKACNLNLIGRPSTEHSWFPGYAWTVAQCKICASHIGWKFTATKKDMSPQKFWGLTRSALLPTIPDTEDEISPDKVILCL
On to B1, for which the binding entry in test [1] and in test [2] was “binds” in each case.

The values are drawn from US20170296524A1.
